Measured values reported in patent publication US12180192B2, “Modulators of THR-β and methods of use thereof” (ALIGOS THERAPEUTICS, INC., priority 2019, dated 2024).
At least one compound was matched to its structure with a doubt left.

Target: T1, THR beta (Homo sapiens, UniProt P10828)
T1 construct: expressed in transfected cells; host or cells: HEK293T (ATCC CRL-3216)
T1 sequence (P10828 1-461): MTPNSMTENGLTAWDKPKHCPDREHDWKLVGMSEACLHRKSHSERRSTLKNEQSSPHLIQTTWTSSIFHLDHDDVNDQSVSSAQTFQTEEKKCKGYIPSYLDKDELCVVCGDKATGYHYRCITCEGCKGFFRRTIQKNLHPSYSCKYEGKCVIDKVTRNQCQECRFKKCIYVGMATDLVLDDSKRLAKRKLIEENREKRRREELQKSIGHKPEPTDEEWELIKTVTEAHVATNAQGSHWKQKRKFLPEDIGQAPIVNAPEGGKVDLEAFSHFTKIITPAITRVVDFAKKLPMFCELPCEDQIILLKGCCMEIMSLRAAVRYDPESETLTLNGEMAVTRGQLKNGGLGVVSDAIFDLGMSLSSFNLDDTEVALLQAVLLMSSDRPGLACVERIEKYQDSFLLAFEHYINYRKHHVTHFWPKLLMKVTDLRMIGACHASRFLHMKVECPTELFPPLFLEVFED
T1 sequence (P19793 1-462 partner): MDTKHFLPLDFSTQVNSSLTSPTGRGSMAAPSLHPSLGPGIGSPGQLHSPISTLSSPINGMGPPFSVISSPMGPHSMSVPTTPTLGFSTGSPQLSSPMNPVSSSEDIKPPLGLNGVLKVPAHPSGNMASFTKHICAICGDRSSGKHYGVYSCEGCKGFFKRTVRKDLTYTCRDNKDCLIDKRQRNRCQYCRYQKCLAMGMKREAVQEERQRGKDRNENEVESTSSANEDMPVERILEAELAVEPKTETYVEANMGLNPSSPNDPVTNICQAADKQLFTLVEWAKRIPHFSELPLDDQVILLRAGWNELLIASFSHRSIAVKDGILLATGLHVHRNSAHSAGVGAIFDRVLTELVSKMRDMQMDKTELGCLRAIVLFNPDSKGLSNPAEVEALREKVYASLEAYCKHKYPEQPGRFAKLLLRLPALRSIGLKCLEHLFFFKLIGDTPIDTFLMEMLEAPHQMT
Assay: HEK293T THR beta/RXR luciferase reporter assay (Assay 2)
Type: cell-based
Conditions: EC50 α / EC50 β
Experimental: HEK293T Reporter THRalpha/Beta/RXR Reporter Assay (Assay 2)
The purpose of this assay is to evaluate the effect of compounds on the thyroid hormone nuclear receptor pathway in HEK293T cells. To this end, HEK293T cells are transiently transfected with a luciferase reporter under the control of the thyroid response element (TRE), an RXR expression plasmid and either a THR alpha or THR beta expression plasmid. Transfected cells are stimulated with test compounds for 18-24 hours before activation of the thyroid hormone pathway is measured via a luciferase read-out.
Procedure. […] Ten five-fold dilutions of test compounds are prepared in DMSO and 30 nL are dispensed to the cells. […] Approximately 18-24 h after compound addition, 384 well plates are allowed to adjust to rt, 30 μL One-Glo (Promega catalog #E6120) is added to each well and luminescence is measured on a Perkin Elmer Enspire plate reader. Percent agonism is calculated using the following equation: 100× (sample-negative control)/(positive control-negative control).

Structure (SMILES): Nc1nn(-c2cc(Cl)c(Oc3cc(C4CCC4)c(=O)[nH]n3)c(Cl)c2)c(=O)[nH]c1=O [Compound 40, 6-amino-2-[3,5-dichloro-4-[(5-cyclobutyl-6-oxo-1H-pyridazin-3-yl)oxy]phenyl]-4H-1,2,4-triazine-3,5-dione]
- Ratio (α/β): 10 (n = 3)
